From PubChem BioAssay AID540276 (National Center for Advancing Translational Sciences (NCATS), 2011)
The campaign covered roughly 300,000 compounds. About 5,400 (1.8%) were called active. Inconclusive means that the source gave no clear call. Such entries were picked first, then a sample of the others. Calls come from the whole dose curve; tested in HEK293 cells. A potency beside an inconclusive call is a rough fit, not a confirmed value.

Experiment: qHTS for inhibitors of binding or entry into cells for Marburg Virus
Conditions: Marburg virus pseudotyped entry inhibition, cell reporter; series mostly up to 37.8 µM
Potency is the fitted concentration of half-maximal effect.

| SMILES | Potency |
| --- | --- |
| CO/N=C/NC(=O)c1c(OC)ccnc1Oc1cccc(C(F)(F)F)c1 | inactive |
| O=C(N/N=C(\c1ccccc1)c1ccccn1)c1ccccc1Cl | inconclusive: 1 µM [activator, partial curve, poor fit] |
| CCCCCC(=O)Nc1ccc(-c2nnc3n2CCCCC3)cc1 | inconclusive: 1.12 µM [inhibitor, full curve, poor fit] |
| Cc1cccc(N2CCN(C(=O)c3csc4ccccc34)CC2C)c1 (centres undefined) | inconclusive: 3.16 µM [inhibitor, single point] |
| COC(=O)NNC(=O)Cc1cccc2ccccc12 | inconclusive: 0.562 µM [activator, full curve, poor fit] |
| Nc1ncnc2nc(-c3ccc(N4CCOCC4)nc3)cc(-c3cccc(Br)c3)c12 | inconclusive: 23.1 µM [inhibitor, single point] |
| Cc1ccc(C(=O)N/N=C\c2ccccn2)cn1 | inconclusive: 35.5 µM [activator, single point] |
| O=C(CSc1nnc(CNC(=O)c2ccccc2F)o1)NC1CCCCC1 | inconclusive: 35.5 µM [activator, single point] |
| CCOc1cccc(-n2nnnc2-c2ccc(OC)cc2)c1 | inconclusive: 6.31 µM [inhibitor, full curve] |
| Cc1n[nH]c(=O)c2c(NC(=O)CSc3ccc(Br)cc3)oc(C)c12 | inactive |
| CN1CCc2nc(NC(=O)COc3ccc(C#N)cc3)sc2C1 | inactive |
| CCOC(=O)Nc1nc(C)c(C(=O)c2ccc(Cl)cc2)s1 | inactive |
| Cc1ccc(C(=O)Nc2sc3c(c2C(=O)O)CCCCC3)o1 | active: 6.31 µM |
| CC(OC(=O)c1ccco1)C(=O)NCc1cccs1 (centres undefined) | inactive |
| COc1ccc(C(C)=O)cc1CSc1nc(C)cc(C)n1 | inconclusive: 1.41 µM [activator, partial curve, poor fit] |
| CC(C)CN(C(=O)CSc1ccc2c(c1)OCCO2)c1c(N)n(CC(C)C)c(=O)[nH]c1=O | inactive |
| Cc1ccc(S(=O)(=O)N2CCN(C(=O)Cc3ccsc3)CC2)c(C)c1 | inconclusive: 3.98 µM [activator, full curve, poor fit] |
| CCc1ccc(NC(=O)c2cc(-c3ccco3)on2)cc1 | inconclusive: 5.8 µM [activator, full curve] |
| Cc1cccc(NC(=O)c2ccc(OCc3c(C)noc3C)cc2)c1C | inconclusive: 0.501 µM [inhibitor, full curve, poor fit] |
| CCC(C(=O)Nc1nccs1)c1ccccc1 (centres undefined) | inactive |
| Cc1cc(NS(=O)(=O)c2cccs2)no1 | inactive |
| N/C(CN1CCCC1=O)=N\O | inactive |
| Cc1oc(-c2ccc(Cl)cc2)nc1CN1CCCC(C(=O)NCCc2ccccc2)C1 (centres undefined) | inactive |
| Cn1cc(Cl)c(C(=O)NC2CCCCCC2)n1 | inconclusive: 20.6 µM [activator, single point] |
| CCCc1nnc(NC(=O)CC(=O)Nc2ccccc2C(=O)O)s1 | inconclusive: 7.94 µM [inhibitor, partial curve, poor fit] |

An excerpt of these results, tab-delimited.
SMILES	Potency
CCc1ccc(NC(=O)c2cc(-c3ccco3)on2)cc1	inconclusive: 5.8 µM [activator, full curve]
N/C(CN1CCCC1=O)=N\O	inactive
Cc1oc(-c2ccc(Cl)cc2)nc1CN1CCCC(C(=O)NCCc2ccccc2)C1 (centres undefined)	inactive

Next records follow.

| SMILES | Potency |
| --- | --- |
| Cc1ccc(-c2nc(P(=O)(c3ccccc3)c3ccccc3)c(N3CCOCC3)o2)cc1 | active: 10.3 µM |
| COc1ccc(C2CC(=O)c3cc(-c4nc(-c5cccc([N+](=O)[O-])c5)cs4)c(=O)n(-c4ccc(F)cc4)c3C2)cc1 (centres undefined) | inactive |
| O=C(CCC1CCCC1)NCc1cccs1 | inactive |
| Nc1nc2nccc(-c3ccccn3)n2n1 | inconclusive: 3.55 µM [inhibitor, partial curve, poor fit] |
| COc1cc(/C=C(\C#N)c2nc3ccccc3[nH]2)cc(Br)c1OCc1ccc(F)cc1 | inactive |
| Cc1cccc(C(=O)NNC(=O)c2cccc(C)c2)c1 | inactive |
| CC(=O)c1ccc(NC(=O)C2CCCN(C(=O)c3ccc(Cl)cc3)C2)cc1 (centres undefined) | inconclusive: 35.5 µM [activator, single point] |
| CCn1c2ccccc2c2cc(NC(=O)CCCN3C(=O)CCC3=O)ccc21 | inactive |
| COc1ccc(NC(=O)CSc2nc3ccccc3c(=O)n2C)cc1 | inconclusive: 39.8 µM [inhibitor, partial curve, poor fit] |
| CC(C)(C)C(=O)Nc1nc2nc(-c3ccccc3)cc(=O)n2[nH]1 | inactive |
| C[C@]12C=CC(=O)C=C1CC[C@@H]1C2=CC[C@]2(C)[C@@H](C(=O)CN3CCN(c4cc(N5CCCC5)nc(N5CCCC5)n4)CC3)CC[C@@H]12 | active: 5.62 µM |
| COCC1CCCCN1Cc1cn[nH]c1-c1ccc(OC)cc1OC (centres undefined) | inconclusive: 6.31 µM [inhibitor, single point] |
| Fc1ccc(NC(=S)NCCN2CCOCC2)c(F)c1F | inactive |
| Cc1ccc(CN(C)C(=O)C2CCC(=O)N(C3CCCCCC3)C2)cc1 (centres undefined) | inconclusive: 35.5 µM [inhibitor, single point] |
| CC(C)Cc1ccc(C(C)C(=O)Nc2ncccn2)cc1 (centres undefined) | inactive |
| COc1ccc(OC)c(N=c2oc3cc(O)ccc3cc2C(N)=O)c1 | inconclusive: 29.1 µM [inhibitor, single point] |
| Cc1ccc(S(=O)(=O)N(Cc2ccc(Cl)cc2)c2ccccc2C(=O)NCc2ccco2)cc1 | inconclusive: 11.2 µM [inhibitor, partial curve, poor fit] |
| CN(CC(=O)Nc1ccc(F)cc1)C(=O)CN1C(=O)NC2(CCCc3ccccc32)C1=O (centres undefined) | inconclusive: 15.8 µM [activator, single point] |
| CCOc1ccc(CC2c3cc(OCC)c(OCC)cc3CCN2C(=O)CN2CCN(C)CC2)cc1OCC (centres undefined) | inconclusive: 35.5 µM [inhibitor, single point] |
| Clc1cc(Br)ccc1OCCN1CCOCC1 | inconclusive: 14.1 µM [activator, partial curve, poor fit] |
| CCNc1nc2c(c(=O)n(C)c(=O)n2C)n1CCCc1ccccc1 | inconclusive: 4.47 µM [inhibitor, full curve] |
| CC(C)(C)OC(=O)N1CCCC(C(=O)Nc2ccc(C(=O)N3CCCC3)cc2)C1 (centres undefined) | inconclusive: 0.0028 µM [activator, full curve, poor fit] |
| COc1cc2ccccc2cc1C(=O)Nc1ccncc1 | inconclusive: 35.5 µM [activator, single point] |
| O=C(c1ccc2c(c1)OCO2)N(CC1CCCO1)C1(C(=O)NC2CCCC2)CCCCC1 (centres undefined) | inactive |
| Cc1no[n+]([O-])c1COc1ccc(/C=N/n2nnnc2N)cc1 | inactive |

| SMILES | Potency |
| --- | --- |
| COCCNC(=O)CN1C(=O)COc2ccc(S(=O)(=O)N3CCCC3)cc21 | inconclusive: 6.31 µM [activator, single point] |
| CC(C)Oc1cccc(C(=O)C2CCCN(Cc3cccn3-c3ccccn3)C2)c1 (centres undefined) | inconclusive: 7.08 µM [inhibitor, partial curve, poor fit] |
| O=C(CSc1nc(O)cc(=O)n1-c1ccccc1)NC1CCCCC1 | inactive |
| COc1ccccc1NS(=O)(=O)c1cccc(C(=O)N2CCN(Cc3ccc4c(c3)OCO4)CC2)c1 | inconclusive: 35.5 µM [inhibitor, single point] |
| COc1cccc(NC(=O)C(=O)NCC(c2ccco2)N2CCc3ccccc3C2)c1 (centres undefined) | inconclusive: 15.8 µM [inhibitor, single point] |
| CC1CCN(C(=O)c2ccc(NS(=O)(=O)c3ccccc3)cc2)CC1 | inactive |
| Cc1ccccc1N1CC(c2nc3ccccc3n2Cc2ccc(Br)cc2)CC1=O (centres undefined) | inactive |
| Cc1cccc(-c2nnc(SCc3ccc(C#N)cc3)n2Cc2ccco2)c1 | inconclusive: 18.3 µM [inhibitor, partial curve, poor fit] |
| CCOC(=O)CSc1nc2sc3c(c2c(=O)n1-c1ccc(OC)cc1)CC(C(C)C)OC3 (centres undefined) | inactive |
| CC(=O)Nc1ccc(S(=O)(=O)N(C)c2ccccc2)cc1 | inconclusive: 23.1 µM [activator, single point] |
| COc1ccc(OC)c2c(C)cc(N3CCCCCC3)nc12 | inconclusive: 35.5 µM [inhibitor, single point] |
| Cc1cc(NC(=O)c2cc(-c3ccc(Cl)c(Cl)c3)on2)n(-c2ccccc2)n1 | inactive |
| CCC(=O)N(C(=O)CC)N1CCN(c2ccncc2S(=O)(=O)N2CCCCC2)CC1 | inconclusive: 25.1 µM [inhibitor, partial curve, poor fit] |
| Cc1ccc(O)c(C2=NCCNC(C(F)(F)F)=C2)c1 | inactive |
| O=C(CCCN1C(=O)/C(=C/c2ccccc2Cl)SC1=S)NNC(=O)c1ccccc1 | inconclusive: 20 µM [inhibitor, partial curve, poor fit] |
| COc1ccc(-c2csc(Nc3cc(C)ccn3)n2)cc1OC | inconclusive: 35.5 µM [inhibitor, single point] |
| Cc1ccc(C(=O)N2CCN(c3ccc(NC(=S)NC(=O)Cc4ccccc4)cc3)CC2)cc1 | inconclusive: 29.1 µM [inhibitor, single point] |
| O=C(NC1CCCCC1)c1nc2c(nnn2Cc2ccccc2Cl)c(=O)[nH]1 | inconclusive: 25.9 µM [activator, partial curve, poor fit] |
| C/C=C/c1ccc(OCC(=O)OCC(=O)Nc2c(C)nn(-c3ccccc3)c2C)c(OC)c1 | inactive |
| CC(=O)NC1CCC(=O)C=C1c1ccccc1 (centres undefined) | inactive |
| NC(=S)NC(=O)/C=C/c1ccccc1 | inconclusive: 35.5 µM [inhibitor, single point] |
| Cc1ccsc1-c1nc(CN(C)C(C2CC2)C2CC2)c(C)o1 | active: 8.91 µM |
| CC1(C(=O)NNC(=O)C2CCCCC2)CC1(Cl)Cl (centres undefined) | inactive |
| O=C(CSc1ncn[nH]1)c1ccco1 | inactive |

Reprinted from the listing for reference:

| SMILES | Potency |
| --- | --- |
| Cc1ccc(CN(C)C(=O)C2CCC(=O)N(C3CCCCCC3)C2)cc1 (centres undefined) | inconclusive: 35.5 µM [inhibitor, single point] |
| CC(C)Cc1ccc(C(C)C(=O)Nc2ncccn2)cc1 (centres undefined) | inactive |
